Measurements from patent US20250025482A1, “USE OF C[…] THE TREATMENT OF EPILEPSY” (GW Research Limited, priority 2021, published 2025).

Assay: Solubility of the drug substance in water
Assay type: physicochemical

SMILES: C=C(C)[C@@H]1CCC(C)=C[C@H]1c1c(O)cc(CCCCC)cc1O [CBD, Cannabidiol]
- solubility in water: insoluble in water
